Experimental data as given in publication PMC10011063.
No constants are given. Whether binding was seen depends on the method and setting. Binding seen in cells or lysates may run through a third protein. Some entries that bind do so weakly or less than the wild type. For part of these data: Sequences can lack the tags named with a protein.

By UniProt entry, the sequences of proteins in these tests, tags left out.
UniProt P63016: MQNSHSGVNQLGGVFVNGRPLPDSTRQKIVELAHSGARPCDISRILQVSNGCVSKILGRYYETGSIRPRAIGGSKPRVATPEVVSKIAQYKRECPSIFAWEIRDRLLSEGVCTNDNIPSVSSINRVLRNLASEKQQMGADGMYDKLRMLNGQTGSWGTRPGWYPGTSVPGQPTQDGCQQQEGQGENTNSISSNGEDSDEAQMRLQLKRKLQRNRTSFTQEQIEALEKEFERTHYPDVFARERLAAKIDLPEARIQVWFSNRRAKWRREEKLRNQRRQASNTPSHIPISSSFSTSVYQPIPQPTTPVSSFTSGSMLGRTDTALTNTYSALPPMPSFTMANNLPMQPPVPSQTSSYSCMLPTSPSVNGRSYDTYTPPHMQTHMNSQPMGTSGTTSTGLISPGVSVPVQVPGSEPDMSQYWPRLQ

B1: Lysine acetyltransferase 2A (KAT2A) (enzyme, UniProt D4ACX5 1-833)
chain: MAEPSQAPNPAPAAQPRPLQSPAPAPTSTPAPSPASAPTPAPTPAPAPAPAAAPAGSTGTGGAGVGSGGDPARPGLSQQQRASQRKAQVRGLPRAKKLEKLGVFSACKANETCKCNGWKNPKPPTAPRMDLQQPAANLSELCRSCEHPLADHVSHLENVSEDEINRLLGMVVDVENLFMSVHKEEDTDTKQVYFYLFKLLRKCILQMTRPVVEGSLGSPPFEKPNIEQGVLNFVQYKFSHLAPRERQTMFELSKMFLLCLNYWKLETPAQFRQRSQSEDVATYKVNYTRWLCYCHVPQSCDSLPRYETTHVFGRSLLRSIFTVTRRQLLEKFRVEKDKLVPEKRTLILTHFPKFLSMLEEEIYGANSPIWESGFTMPPSEGTQLVPRPATVSATVVPSTPIFSPSMGGGSNSSLSLDSTGTEPMPAGEKRKLPENLTLEDAKRLRVMGDIPMELVNEVMLTITDPAAMLGPETSLLSANAARDETARLEERRGIIEFHVIGNSLTPKANRRVLLWLVGLQNVFSHQLPRMPKEYIARLVFDPKHKTLALIKDGRVIGGICFRMFPTQGFTEIVFCAVTSNEQVKGYGTHLMNHLKEYHIKHSILYFLTYADEYAIGYFKKQGFSKDIKVPKSRYLGYIKDYEGATLMECELNPRIPYTELSHIIKKQKEIIKKLIERKQAQIRKVYPGLSCFKEGVRQIPVESVPGIRETGWKPLGKEKGKELKDPDQLYTTLKNLLAQIKSHPSAWPFMEPVKKSEAPDYYEVIRFPIDLKTMTERLRSRYYVTRKLFVADLQRVIANCREYNPPDSEYCRCASALEKFFYFKLKEGGLIDK
B2: tagged RNF8 (enzyme, UniProt Q4KLN8 1-487)
chain: MGEPDPLVSGQLAARRSWCLRRLGMDREWLQLEAGSEVTIGRGFSVTYQLISKVCPLMISRNHCVLKQNPEGQWTIMDNKSLNGVWLNRERLAPLQGYCIRKGDHIQLGVPLESKEHAEYEYEVIEEDRESLAPCLAPKNDHTTEKHKGLRTKRKFSSDGVESLPAEGPSDLRCPLAKGSSKPAEPEKLHGKGEAASQPLGCLCPTLASLEASERTAGPHACSTLPKVLELYPKKQKACSPSASQSSLELFKMTMSRMLKLKTQMQEKQIAVLNVKRQARKGSSKKVVRMEKELRDLQSQLYAEQAQQQARVEQLEKTFQEEEQHLQGLEKEQGECDLKQQLLQALQEHRALMEELDRSKKDFEKIIQAKNKELERTKEEKDKVQAQKEEVLSHMNDVLENELQCIICSEYFIEAVTLNCAHSFCSFCISEWMKRKVECPICRKDIESRTNSLVLDNCISKMVERLSSDVKERRSVLIRERRAKRLL
B3: ring finger protein 8 (RNF8) (enzyme, UniProt Q4KLN8 1-487)
chain: B2 chain

Tests used:
[1] = molecular target: Paired Box 6 (PAX6) (rat (endogenous in cultured NSCs)) (UniProt P63016); assay: co-IP; endogenous proteins in lysates of cultured rat NSCs (undifferentiated and after induction of differentiation, 0 h and 24 h for RNF8); antibody against the bait, Western blot of the partner; Pierce Co-IP kit, 4 °C overnight
tagged PAX6 = tagged PAX6 (UniProt P63016); assay: co-IP; HEK293T cells transfected with tagged RNF8 and tagged PAX6; immunoprecipitation of each in turn, immunoblot of the other

| Binder | binding [1] | binding (tagged PAX6) |
| --- | --- | --- |
| B1 | binds |  |
| B2 |  | binds |
| B3 | binds |  |
